The labels stand for the following.
B1: CP190 fragment F1 (aa 1-209; BTB domain plus linker) (domain or fragment, UniProt Q24478 1-209)
chain: MGEVKSVKVDNWGVFFLQKLQNFFNKTDYCDLTLQFRDNSQLKVHRLVLSACTDYFNVLEQTCEIVDDALIMPNEFQADVVVPIVNFMYTGTLEFELKMYGKLLRTAKEMNMTVLLKLLEAHRRTMENVNRQQRPPSPKGIRRRTVGQPSSGLPQQRVLGPSPQSRNVATPIAQRANTQRGSTGNTMSRTSGGSNRSPYGDSSNVKQEP
B2: GST-F1-L (CP190 linker artificially dimerized as a GST fusion) (domain or fragment, UniProt Q24478 136-209)
chain: PSPKGIRRRTVGQPSSGLPQQRVLGPSPQSRNVATPIAQRANTQRGSTGNTMSRTSGGSNRSPYGDSSNVKQEP
B3: CP190 linker region F1-L (aa 136-209) (domain or fragment, UniProt Q24478 136-209)
chain: B2 chain
B4: Drosophila melanogaster CP190 BTB domain (residues 1-135) (domain or fragment, UniProt Q24478 1-135, looked up)
chain: MGEVKSVKVDNWGVFFLQKLQNFFNKTDYCDLTLQFRDNSQLKVHRLVLSACTDYFNVLEQTCEIVDDALIMPNEFQADVVVPIVNFMYTGTLEFELKMYGKLLRTAKEMNMTVLLKLLEAHRRTMENVNRQQRP
notes: CP190 (centrosome associated protein at 190 kDa), Drosophila melanogaster, BTB domain, residues 1-135; the final crystal model holds residues 2-121; Native and selenomethionine-substituted protein were crystallised; also called BTB-WT; source: E. coli BL21 DE3 (pLysS), purified (Ni-NTA, thrombin digestion, Q-sepharose ion exchange); not shown: His6, N-terminal, cleaved

These are yes or no findings as the source states them, for the method shown. Binding can be weak; no strength is given. Where a sequence is shown, tags or fusion partners need not be part of it.

This assay has as its target taxol-stabilized microtubules. Nature of the assay: co-sedimentation; taxol-stabilized MTs and purified protein incubated at room temperature 20 min, layered on a 40% glycerol cushion, 50,000xg 30 min; supernatant and pellet by SDS-PAGE (Coomassie); both purified.
For the molecule B1, the binding entry is recorded as “binds”. Then B2, with “binds weakly”.

Turning to B3, the binding entry is given as “no binding”. As to B4, the binding entry is reported as “no binding”.

The record behind these values is publication PMC4674064, “Newly Characterized Region of CP190 Associates with Microtubules and Mediates Proper Spindle Morphology in Drosophila Stem Cells” (PLoS ONE, 2015).
